Laboratory results taken from PubChem BioAssay AID1986 (Sanford-Burnham Center for Chemical Genomics, 2009).
In all, about 290,000 compounds went through this assay and about 890 (0.31%) were called active. Cut-off read from the data, not from the text of the source: active = inhibition mostly above about 52% (no sharp cut-off); inactive = mostly below about 76%. This is a selection; strong and weak results do not stand in their true shares.

Experiment: inhibitors of HIV fusion peptide binding, primary screen, biochemical, uHTS, fluorescence dequenching (AID 1986)
Settings: cell-free peptide binding, 30 min, at 20 µM, active compounds read high

SMILES	inhibition
OCCOCCN1CCN(C(c2ccccc2)c2ccc(Cl)cc2)CC1 (configuration not stated)	inactive: 1.4%
CC(C)(C)c1ccc(C(=O)Nc2cccc3ncccc23)cc1	active: 62%
